Measurements reported in the supplement of paper PMC12067093, “Discovery and optimisation of a covalent ligand for TRIM25 and its application to targeted protein ubiquitination” (Chemical Science, 2025).
This is one part of the list.

Amino acid sequences for entries named in this document (tags omitted). A change or cut given only in a name is not applied to a line headed by its entry.
UniProt Q53EZ4: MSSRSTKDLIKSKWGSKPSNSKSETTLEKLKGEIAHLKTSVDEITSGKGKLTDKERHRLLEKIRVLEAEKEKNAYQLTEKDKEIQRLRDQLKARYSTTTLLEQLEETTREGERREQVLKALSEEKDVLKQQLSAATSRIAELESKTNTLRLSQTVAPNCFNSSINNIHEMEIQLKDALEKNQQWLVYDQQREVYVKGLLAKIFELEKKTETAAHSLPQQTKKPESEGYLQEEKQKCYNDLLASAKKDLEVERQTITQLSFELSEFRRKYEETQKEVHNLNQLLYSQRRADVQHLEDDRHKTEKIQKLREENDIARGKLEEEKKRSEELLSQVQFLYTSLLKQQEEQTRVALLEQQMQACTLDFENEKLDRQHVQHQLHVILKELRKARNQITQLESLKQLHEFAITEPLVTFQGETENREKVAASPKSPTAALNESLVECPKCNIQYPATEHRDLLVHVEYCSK
UniProt Q96GN5: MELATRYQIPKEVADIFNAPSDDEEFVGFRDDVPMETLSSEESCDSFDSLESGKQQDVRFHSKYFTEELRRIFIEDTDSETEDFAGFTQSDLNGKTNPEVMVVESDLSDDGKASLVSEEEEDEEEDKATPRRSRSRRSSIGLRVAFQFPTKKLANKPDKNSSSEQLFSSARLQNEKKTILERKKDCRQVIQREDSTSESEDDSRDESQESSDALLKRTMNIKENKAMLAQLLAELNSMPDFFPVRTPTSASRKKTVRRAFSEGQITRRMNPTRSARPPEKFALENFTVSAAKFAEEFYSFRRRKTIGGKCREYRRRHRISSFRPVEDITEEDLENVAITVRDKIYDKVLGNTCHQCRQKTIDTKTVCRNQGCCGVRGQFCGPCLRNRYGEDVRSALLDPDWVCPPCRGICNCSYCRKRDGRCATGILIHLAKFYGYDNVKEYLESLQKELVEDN
UniProt Q99832: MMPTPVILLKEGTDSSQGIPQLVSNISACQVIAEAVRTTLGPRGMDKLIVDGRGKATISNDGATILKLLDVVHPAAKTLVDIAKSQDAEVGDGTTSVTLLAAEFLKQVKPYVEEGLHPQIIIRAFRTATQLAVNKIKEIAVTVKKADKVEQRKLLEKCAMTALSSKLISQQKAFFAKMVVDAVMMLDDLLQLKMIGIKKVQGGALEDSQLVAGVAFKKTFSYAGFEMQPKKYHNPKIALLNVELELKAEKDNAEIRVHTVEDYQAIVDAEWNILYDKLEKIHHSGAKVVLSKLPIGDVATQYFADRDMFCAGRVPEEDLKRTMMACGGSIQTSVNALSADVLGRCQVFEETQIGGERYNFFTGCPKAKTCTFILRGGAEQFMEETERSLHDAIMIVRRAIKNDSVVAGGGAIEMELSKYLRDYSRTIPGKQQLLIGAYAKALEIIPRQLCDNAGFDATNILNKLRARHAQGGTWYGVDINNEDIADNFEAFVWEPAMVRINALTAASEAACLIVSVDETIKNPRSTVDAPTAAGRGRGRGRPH
UniProt P28907, whole entry, looked up: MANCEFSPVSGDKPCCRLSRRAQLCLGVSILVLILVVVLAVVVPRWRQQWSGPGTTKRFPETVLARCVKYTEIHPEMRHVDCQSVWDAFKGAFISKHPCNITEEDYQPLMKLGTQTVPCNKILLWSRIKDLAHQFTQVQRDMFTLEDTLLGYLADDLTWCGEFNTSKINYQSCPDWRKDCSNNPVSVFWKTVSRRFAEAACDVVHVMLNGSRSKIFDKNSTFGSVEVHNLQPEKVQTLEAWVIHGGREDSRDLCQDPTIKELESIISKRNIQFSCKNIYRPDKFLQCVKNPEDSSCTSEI
UniProt P16070: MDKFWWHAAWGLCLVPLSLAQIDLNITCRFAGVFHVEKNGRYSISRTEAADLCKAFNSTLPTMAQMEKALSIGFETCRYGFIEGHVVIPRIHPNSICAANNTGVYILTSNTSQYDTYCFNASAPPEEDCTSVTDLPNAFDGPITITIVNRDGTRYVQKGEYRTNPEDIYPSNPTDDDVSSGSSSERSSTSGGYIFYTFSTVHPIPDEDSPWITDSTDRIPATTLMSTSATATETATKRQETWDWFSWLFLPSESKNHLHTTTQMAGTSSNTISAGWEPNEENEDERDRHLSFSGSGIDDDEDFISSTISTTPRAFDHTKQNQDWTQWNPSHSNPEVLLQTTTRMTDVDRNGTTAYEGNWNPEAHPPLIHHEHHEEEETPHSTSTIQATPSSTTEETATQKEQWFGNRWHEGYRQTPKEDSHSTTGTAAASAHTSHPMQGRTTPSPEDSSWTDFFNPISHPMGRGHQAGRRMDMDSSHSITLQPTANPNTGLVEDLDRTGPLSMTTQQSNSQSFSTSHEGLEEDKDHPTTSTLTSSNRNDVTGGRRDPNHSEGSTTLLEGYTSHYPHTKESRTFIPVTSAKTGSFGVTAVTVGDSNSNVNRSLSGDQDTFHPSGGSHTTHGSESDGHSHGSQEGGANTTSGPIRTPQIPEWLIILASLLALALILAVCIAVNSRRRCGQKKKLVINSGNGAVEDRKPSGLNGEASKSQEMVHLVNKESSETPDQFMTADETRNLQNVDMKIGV
UniProt Q92879: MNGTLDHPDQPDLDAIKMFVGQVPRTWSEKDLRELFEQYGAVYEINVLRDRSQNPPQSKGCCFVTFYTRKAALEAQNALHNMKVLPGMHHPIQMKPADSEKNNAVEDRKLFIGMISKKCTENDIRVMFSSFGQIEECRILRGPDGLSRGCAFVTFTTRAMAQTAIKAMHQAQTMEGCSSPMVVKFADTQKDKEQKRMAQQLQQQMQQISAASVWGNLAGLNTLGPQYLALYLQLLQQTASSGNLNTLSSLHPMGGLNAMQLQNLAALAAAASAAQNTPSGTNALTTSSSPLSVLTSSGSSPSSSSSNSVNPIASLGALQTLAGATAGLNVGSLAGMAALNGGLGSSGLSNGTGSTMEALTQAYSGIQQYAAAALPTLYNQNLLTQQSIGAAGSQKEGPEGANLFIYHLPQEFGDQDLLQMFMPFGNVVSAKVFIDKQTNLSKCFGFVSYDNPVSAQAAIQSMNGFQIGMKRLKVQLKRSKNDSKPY
UniProt Q6YHK3: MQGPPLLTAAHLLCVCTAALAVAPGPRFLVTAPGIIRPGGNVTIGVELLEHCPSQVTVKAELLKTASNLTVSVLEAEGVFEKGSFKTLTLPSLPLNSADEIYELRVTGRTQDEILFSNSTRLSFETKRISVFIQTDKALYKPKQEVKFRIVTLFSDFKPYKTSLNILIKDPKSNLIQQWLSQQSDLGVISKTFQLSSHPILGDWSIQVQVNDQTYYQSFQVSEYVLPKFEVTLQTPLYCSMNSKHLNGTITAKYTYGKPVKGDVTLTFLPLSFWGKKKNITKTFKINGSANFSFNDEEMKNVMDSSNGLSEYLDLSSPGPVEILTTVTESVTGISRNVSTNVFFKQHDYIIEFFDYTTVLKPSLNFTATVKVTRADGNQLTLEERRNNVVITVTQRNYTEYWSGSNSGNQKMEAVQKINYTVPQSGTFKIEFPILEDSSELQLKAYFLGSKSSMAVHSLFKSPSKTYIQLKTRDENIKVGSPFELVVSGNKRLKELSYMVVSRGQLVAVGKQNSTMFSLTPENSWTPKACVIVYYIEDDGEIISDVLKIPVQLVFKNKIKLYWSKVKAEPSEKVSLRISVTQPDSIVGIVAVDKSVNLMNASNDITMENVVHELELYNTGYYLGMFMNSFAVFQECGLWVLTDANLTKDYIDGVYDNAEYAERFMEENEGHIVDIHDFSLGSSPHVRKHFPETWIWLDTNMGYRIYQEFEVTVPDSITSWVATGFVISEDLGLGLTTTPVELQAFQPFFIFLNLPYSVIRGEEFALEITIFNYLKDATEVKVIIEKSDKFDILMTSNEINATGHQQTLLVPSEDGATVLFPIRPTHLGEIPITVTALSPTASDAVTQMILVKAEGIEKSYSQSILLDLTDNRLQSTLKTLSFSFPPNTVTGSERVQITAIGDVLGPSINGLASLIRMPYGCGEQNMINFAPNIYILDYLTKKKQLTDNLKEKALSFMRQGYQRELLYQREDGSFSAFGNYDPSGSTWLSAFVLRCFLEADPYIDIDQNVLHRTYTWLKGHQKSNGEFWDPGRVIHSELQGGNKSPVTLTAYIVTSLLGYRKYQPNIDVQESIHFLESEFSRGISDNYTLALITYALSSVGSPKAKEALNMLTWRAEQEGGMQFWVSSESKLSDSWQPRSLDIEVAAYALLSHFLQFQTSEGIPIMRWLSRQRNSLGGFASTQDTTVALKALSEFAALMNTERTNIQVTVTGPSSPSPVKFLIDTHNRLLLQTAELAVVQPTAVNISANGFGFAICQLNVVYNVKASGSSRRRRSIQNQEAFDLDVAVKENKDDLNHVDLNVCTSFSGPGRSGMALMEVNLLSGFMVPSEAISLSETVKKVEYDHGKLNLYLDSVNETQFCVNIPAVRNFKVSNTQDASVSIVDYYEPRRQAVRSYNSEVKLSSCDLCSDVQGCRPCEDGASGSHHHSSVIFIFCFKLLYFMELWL
UniProt Q9BS16: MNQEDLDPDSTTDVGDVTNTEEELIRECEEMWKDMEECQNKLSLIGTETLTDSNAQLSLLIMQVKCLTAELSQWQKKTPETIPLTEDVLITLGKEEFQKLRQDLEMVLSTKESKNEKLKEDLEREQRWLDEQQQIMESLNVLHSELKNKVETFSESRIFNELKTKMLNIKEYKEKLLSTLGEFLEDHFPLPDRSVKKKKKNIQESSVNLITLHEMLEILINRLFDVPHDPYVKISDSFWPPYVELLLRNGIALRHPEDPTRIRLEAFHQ
UniProt P50990: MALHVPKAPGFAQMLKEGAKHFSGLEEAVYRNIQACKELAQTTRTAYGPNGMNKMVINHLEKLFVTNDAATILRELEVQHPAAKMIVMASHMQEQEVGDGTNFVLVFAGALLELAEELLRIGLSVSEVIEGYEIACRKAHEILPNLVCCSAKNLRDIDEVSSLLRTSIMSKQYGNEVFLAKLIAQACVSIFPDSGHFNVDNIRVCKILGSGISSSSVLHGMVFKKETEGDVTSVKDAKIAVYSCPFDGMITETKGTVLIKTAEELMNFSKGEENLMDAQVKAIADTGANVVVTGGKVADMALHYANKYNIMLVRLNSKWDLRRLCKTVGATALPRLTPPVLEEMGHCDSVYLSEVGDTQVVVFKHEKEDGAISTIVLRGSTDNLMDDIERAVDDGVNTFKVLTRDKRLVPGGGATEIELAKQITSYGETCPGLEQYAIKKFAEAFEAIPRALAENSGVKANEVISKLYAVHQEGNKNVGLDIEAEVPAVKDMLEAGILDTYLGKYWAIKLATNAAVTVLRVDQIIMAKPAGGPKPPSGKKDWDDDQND
UniProt Q6IPU0: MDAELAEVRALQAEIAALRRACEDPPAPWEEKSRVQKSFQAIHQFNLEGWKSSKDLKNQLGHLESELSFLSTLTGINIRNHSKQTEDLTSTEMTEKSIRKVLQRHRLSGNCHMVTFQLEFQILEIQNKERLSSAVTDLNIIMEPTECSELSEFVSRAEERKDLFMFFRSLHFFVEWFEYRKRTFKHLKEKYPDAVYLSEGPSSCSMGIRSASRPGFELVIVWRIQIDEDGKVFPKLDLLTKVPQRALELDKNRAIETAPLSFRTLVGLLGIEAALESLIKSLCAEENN
UniProt Q5ZPR3: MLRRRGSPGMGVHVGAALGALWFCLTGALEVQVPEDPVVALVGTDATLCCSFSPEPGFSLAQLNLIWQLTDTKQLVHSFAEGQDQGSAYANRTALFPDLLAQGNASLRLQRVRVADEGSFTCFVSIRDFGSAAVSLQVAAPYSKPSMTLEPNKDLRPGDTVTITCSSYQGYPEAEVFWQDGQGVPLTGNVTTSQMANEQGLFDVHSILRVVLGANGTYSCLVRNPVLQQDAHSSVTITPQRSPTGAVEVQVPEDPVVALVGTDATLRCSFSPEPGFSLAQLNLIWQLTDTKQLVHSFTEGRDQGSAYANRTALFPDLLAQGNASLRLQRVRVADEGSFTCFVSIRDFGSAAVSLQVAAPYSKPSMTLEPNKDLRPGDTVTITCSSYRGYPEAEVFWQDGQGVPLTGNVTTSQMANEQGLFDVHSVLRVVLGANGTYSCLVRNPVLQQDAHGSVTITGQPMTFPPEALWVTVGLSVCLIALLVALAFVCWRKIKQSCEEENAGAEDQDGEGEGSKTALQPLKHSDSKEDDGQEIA

Compound: CC1Cc2ccccc2N1C(=O)C1CCCN(C1)C(=O)CCl (mixture of isomers) [TRIM25 ligand 11 (diastereomer mixture)]
Assay: probe-labelled cysteine peptide fold change vs DMSO (competition) (log2 fold change); higher = less target engagement (more negative = stronger competition)
Details: THP-1, incubation time: 4 h
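Further: competitive chemoproteomic profiling in live THP-1 cells with an iodoacetamide desthiobiotin (IA-DTB) probe, comparing probe-labelled peptide intensities in compound-treated cells against DMSO-treated controls.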

Row | Target | probe-labelled cysteine peptide fold change (10 µM) | probe-labelled cysteine peptide fold change (50 µM)
1 | CEP55_Q53EZ4_359_VALLEQQMQACTLDFENEK (UniProt Q53EZ4) | -0.00735 | 0.0446
2 | CEP192_Q8TEP8_272_QANENGSLNCK (UniProt Q8TEP8) | -0.0492 | -0.283
3 | CDCA7L_Q96GN5_422_CATGILIHLAK (UniProt Q96GN5) | -0.204 | -0.214
4 | CEP55_Q53EZ4_443_CNIQYPATEHR (UniProt Q53EZ4) | -0.039 | 0.00565
5 | CDK5RAP2_Q96SN8_434_SKGDCTIR (UniProt Q96SN8) | -0.0751 | 0.121
6 | CCT7_Q99832_158_CAMTALSSK (UniProt Q99832) | 0.0692 | 0.0563
7 | CENPF_P49454_569_DCSQDLLK (UniProt P49454) | 0.203 | 0.15
8 | CD38_P28907_254_DLCQDPTIK (UniProt P28907) | 0.18 | 0.0354
9 | CD44_P16070_53_TEAADLCK (UniProt P16070) | 0.049 | 0.153
10 | CELF1_Q92879_150_GCAFVTFTTR (UniProt Q92879) | 0.0515 | 0.134
11 | CD109_Q6YHK3_1302_ENKDDLNHVDLNVCTSFSGPGR (UniProt Q6YHK3) | -0.0621 | -0.183
12 | CENPK_Q9BS16_66_CLTAELSQWQK (UniProt Q9BS16) | -0.0906 | -0.0614
13 | CCT8_P50990_244_IAVYSCPFDGMITETK (UniProt P50990) | -0.0213 | -0.156
14 | CENPP_Q6IPU0_147_LSSAVTDLNIIMEPTECSELSEFVSR (UniProt Q6IPU0) | -0.0616 | -0.104
15 | CD276_Q5ZPR3_383_DLRPGDTVTITCSSYR (UniProt Q5ZPR3) | 0.0574 | 0.215

Part of the list above, in CSV form:
Row,Target,probe-labelled cysteine peptide fold change (10 µM),probe-labelled cysteine peptide fold change (50 µM)
10,CELF1_Q92879_150_GCAFVTFTTR (UniProt Q92879),0.0515,0.134
11,CD109_Q6YHK3_1302_ENKDDLNHVDLNVCTSFSGPGR (UniProt Q6YHK3),-0.0621,-0.183
